Experimental findings from article PMC11229315 are described below.

Protein sequences, listed by entry. Tags and fused reporters are not part of them.
UniProt Q8WXI9: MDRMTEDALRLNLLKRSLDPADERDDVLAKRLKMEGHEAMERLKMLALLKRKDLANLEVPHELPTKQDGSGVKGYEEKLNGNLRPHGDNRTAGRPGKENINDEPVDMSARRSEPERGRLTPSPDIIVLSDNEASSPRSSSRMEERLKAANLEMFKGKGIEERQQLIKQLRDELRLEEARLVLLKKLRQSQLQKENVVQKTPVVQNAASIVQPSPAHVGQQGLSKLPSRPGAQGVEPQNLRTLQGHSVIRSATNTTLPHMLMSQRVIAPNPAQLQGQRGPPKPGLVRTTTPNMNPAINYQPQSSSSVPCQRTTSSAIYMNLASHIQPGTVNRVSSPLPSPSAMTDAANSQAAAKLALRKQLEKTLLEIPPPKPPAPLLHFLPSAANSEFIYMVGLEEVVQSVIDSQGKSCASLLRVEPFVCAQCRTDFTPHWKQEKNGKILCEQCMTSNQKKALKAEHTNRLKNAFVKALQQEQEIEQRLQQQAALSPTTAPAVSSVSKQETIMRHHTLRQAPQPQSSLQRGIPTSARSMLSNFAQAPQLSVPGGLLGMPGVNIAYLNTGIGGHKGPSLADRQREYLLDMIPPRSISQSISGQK

Results are given in words; binding and its absence hold for the method and conditions named. Binding seen in cells or lysates may run through a third protein. A yes stands for co-enrichment or nearness to the bait. Other partners may have been found. Where a sequence is shown, tags or fusion partners need not be part of it.

This assay addresses T1, Flag-HA-tagged CARM1 (pCMV10-Flag-CARM1-HA) (UniProt Q86X55).
T1 sequence: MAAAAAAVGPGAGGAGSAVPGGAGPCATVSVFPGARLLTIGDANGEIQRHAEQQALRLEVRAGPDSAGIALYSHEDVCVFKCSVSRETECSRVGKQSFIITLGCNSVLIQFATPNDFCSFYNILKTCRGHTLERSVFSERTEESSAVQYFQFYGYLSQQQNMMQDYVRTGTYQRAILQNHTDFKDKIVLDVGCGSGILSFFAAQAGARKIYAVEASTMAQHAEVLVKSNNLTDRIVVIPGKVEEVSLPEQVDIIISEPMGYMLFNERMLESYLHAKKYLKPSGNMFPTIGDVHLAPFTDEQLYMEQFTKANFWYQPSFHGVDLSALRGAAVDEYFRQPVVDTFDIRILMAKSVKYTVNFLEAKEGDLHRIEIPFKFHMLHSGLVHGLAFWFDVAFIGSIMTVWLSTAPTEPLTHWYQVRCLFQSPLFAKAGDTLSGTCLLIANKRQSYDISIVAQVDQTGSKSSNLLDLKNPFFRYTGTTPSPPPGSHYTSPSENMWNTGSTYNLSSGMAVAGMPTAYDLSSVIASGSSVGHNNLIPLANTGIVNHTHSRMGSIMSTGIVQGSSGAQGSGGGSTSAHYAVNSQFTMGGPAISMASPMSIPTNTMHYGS
Briefly: affinity purification with mass spectrometry; nuclear extracts of HEK293 cells stably expressing Flag-HA-tagged CARM1; Anti-FLAG M2 Affinity gel; DNase I added; washes with 150 mM NaCl then 420 mM NaCl, 1% Triton X-100; eluted with 3x Flag peptides; LC-MS/MS.

Take “GATAD2B (endogenous) (from UniProt Q8WXI9 1-593)”: the binding result is listed as “binds”.
